Results are given in words; binding and its absence hold for the method and conditions named. Binding seen in cells or lysates may run through a third protein. Some binding calls cover weakened binding; strength is not graded here.
How the values were obtained:
[1] = biological target: butyrophilin-3 isoform A1 (BTN3A1) (human (endogenous in MZ1851rc)) (UniProt O00481); test: proximity ligation
[2] = biological target: phospho-deficient BTN3A1 variant (S296 and T297 substituted with alanine), BTN3A1-Flag (human) (UniProt O00481); test: FRET or BRET

By UniProt entry, the sequences of proteins in these tests, tags left out. Where a name states a change or a piece, a line headed by the entry shows the natural chain unless it says otherwise. Chains listed by the source or under a name are the forms on record and can include a tag or linker. Residues count along the entry.
butyrophilin-3 isoform A1 (BTN3A1) (human (endogenous in MZ1851rc)) (O00481, residues 30-513): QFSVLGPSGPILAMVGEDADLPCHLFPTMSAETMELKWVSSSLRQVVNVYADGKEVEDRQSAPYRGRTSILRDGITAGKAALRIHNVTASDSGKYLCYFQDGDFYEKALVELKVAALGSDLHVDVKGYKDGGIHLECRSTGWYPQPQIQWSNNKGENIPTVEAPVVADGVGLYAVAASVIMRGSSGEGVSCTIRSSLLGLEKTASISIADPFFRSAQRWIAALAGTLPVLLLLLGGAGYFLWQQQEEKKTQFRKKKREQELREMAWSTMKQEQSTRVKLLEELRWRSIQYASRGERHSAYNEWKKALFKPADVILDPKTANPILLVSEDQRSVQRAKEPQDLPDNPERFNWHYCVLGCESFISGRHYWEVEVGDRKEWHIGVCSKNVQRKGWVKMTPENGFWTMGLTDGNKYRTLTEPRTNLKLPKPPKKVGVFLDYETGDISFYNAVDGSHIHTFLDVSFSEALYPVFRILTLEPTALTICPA
phospho-deficient BTN3A1 variant (S296 and T297 substituted with alanine), BTN3A1-Flag (O00481, form named): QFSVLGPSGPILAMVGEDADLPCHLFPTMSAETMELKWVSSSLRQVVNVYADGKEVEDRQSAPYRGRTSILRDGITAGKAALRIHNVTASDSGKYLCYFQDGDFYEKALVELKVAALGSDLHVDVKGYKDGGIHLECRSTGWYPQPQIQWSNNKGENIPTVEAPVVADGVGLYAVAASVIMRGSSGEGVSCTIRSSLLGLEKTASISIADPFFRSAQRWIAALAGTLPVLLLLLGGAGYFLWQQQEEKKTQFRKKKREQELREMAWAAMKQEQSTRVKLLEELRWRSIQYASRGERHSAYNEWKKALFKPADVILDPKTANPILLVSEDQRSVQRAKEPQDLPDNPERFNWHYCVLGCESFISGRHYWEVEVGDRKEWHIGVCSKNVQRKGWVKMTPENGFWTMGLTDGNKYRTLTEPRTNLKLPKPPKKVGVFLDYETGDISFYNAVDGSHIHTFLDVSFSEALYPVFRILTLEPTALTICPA
UniProt Q5VZK9: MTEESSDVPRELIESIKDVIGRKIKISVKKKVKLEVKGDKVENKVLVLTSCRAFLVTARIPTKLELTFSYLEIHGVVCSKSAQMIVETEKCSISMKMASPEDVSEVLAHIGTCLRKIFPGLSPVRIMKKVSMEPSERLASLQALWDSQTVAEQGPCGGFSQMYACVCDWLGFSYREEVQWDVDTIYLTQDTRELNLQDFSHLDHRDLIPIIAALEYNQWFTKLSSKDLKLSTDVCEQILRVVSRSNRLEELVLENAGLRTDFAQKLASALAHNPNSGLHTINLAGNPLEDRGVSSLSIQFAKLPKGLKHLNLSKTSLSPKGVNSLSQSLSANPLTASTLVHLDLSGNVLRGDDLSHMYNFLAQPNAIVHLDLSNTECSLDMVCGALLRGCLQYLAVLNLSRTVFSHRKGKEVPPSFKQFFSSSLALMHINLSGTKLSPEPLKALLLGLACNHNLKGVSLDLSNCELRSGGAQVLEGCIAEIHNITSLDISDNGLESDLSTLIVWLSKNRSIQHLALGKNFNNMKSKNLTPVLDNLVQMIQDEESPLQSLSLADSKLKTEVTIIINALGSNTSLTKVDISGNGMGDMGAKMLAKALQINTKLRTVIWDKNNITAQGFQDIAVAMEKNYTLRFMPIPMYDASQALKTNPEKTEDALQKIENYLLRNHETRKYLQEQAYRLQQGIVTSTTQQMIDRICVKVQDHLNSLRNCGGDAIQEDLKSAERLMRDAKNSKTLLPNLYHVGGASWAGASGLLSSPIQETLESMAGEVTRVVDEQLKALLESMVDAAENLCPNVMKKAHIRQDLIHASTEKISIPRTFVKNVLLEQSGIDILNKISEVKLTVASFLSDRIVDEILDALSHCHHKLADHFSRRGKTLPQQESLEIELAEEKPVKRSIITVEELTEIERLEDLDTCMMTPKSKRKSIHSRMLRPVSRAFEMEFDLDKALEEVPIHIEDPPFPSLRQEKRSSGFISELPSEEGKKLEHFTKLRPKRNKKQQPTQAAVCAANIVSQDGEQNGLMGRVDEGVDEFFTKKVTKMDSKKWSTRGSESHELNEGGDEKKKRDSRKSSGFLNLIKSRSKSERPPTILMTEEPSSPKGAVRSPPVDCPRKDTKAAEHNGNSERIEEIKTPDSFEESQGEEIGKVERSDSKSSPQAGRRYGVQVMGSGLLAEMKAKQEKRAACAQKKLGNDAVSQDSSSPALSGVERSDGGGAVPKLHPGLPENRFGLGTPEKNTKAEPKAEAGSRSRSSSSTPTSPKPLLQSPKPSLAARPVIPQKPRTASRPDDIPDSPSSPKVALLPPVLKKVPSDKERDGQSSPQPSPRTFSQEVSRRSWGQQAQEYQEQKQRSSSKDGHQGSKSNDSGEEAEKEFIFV
UniProt P62745: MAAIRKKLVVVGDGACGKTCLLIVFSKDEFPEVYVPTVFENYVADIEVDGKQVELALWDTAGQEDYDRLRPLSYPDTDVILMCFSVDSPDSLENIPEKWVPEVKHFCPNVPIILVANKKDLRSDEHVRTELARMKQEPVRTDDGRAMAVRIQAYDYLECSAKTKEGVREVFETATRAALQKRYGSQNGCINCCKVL

binding [1]	binding [2]	Molecule
binds	–	CARMIL1 (from UniProt Q5VZK9 1-1371)
–	no binding	RhoB (from UniProt P62745 1-196)
binds	–	SYNJ2 (protein, UniProt O15056 1-1496) MALSKGLRLLGRLGAEGDCSVLLEARGRDDCLLFEAGTVATLAPEEKEVIKGQYGKLTDAYGCLGELRLKSGGTSLSFLVLVTGCTSVGRIPDAEIYKITATDFYPLQEEAKEEERLIALKKILSSGVFYFSWPNDGSRFDLTVRTQKQGDDSSEWGNSFFWNQLLHVPLRQHQVSCCDWLLKIICGVVTIRTVYASHKQAKACLVSRVSCERTGTRFHTRGVNDDGHVSNFVETEQMIYMDDGVSSFVQIRGSVPLFWEQPGLQVGSHHLRLHRGLEANAPAFDRHMVLLKEQYGQQVVVNLLGSRGGEEVLNRAFKKLLWASCHAGDTPMINFDFHQFAKGGKLEKLETLLRPQLKLHWEDFDVFTKGENVSPRFQKGTLRMNCLDCLDRTNTVQSFIALEVLHLQLKTLGLSSKPIVDRFVESFKAMWSLNGHSLSKVFTGSRALEGKAKVGKLKDGARSMSRTIQSNFFDGVKQEAIKLLLVGDVYGEEVADKGGMLLDSTALLVTPRILKAMTERQSEFTNFKRIRIAMGTWNVNGGKQFRSNVLRTAELTDWLLDSPQLSGATDSQDDSSPADIFAVGFEEMVELSAGNIVNASTTNKKMWGEQLQKAISRSHRYILLTSAQLVGVCLYIFVRPYHVPFIRDVAIDTVKTGMGGKAGNKGAVGIRFQFHSTSFCFICSHLTAGQSQVKERNEDYKEITQKLCFPMGRNVFSHDYVFWCGDFNYRIDLTYEEVFYFVKRQDWKKLLEFDQLQLQKSSGKIFKDFHEGAINFGPTYKYDVGSAAYDTSDKCRTPAWTDRVLWWRKKHPFDKTAGELNLLDSDLDVDTKVRHTWSPGALQYYGRAELQASDHRPVLAIVEVEVQEVDVGARERVFQEVSSFQGPLDATVVVNLQSPTLEEKNEFPEDLRTELMQTLGSYGTIVLVRINQGQMLVTFADSHSALSVLDVDGMKVKGRAVKIRPKTKDWLKGLREEIIRKRDSMAPVSPTANSCLLEENFDFTSLDYESEGDILEDDEDYLVDEFNQPGVSDSELGGDDLSDVPGPTALAPPSKSPALTKKKQHPTYKDDADLVELKRELEAVGEFRHRSPSRSLSVPNRPRPPQPPQRPPPPTGLMVKKSASDASISSGTHGQYSILQTARLLPGAPQQPPKARTGISKPYNVKQIKTTNAQEAEAAIRCLLEARGGASEEALSAVAPRDLEASSEPEPTPGAAKPETPQAPPLLPRRPPPRVPAIKKPTLRRTGKPLSPEEQFEQQTVHFTIGPPETSVEAPPVVTAPRVPPVPKPRTFQPGKAAERPSHRKPASDEAPPGAGASVPPPLEAPPLVPKVPPRRKKSAPAAFHLQVLQSNSQLLQGLTYNSSDSPSGHPPAAGTVFPQGDFLSTSSATSPDSDGTKAMKPEAAPLLGDYQDPFWNLLHHPKLLNNTWLSKSSDPLDSGTRSPKRDPIDPVSAGASAAKAELPPDHEHKTLGHWVTISDQEKRTALQVFDPLAKT
